Results reported in ChEMBL document CHEMBL1158258, “Bioactive Isoquinoline Quinone from an Undescribed Philippine Marine Sponge of the Genus Xestospongia” (J Nat Prod, 1996).

System: Staphylococcus aureus
Experiment: Antibacterial activity against Staphylococcus aureus ATCC 25923 at 100 ug after 24 hrs by agar plate diffusion assay
Format: functional

Question: For GENTAMICIN, which inhibition zone (IZ) is on record?
Answer: Its inhibition zone (IZ) is 17 mm.
